In the test the target is T1, mouse UBA7 (mouse) (UniProt Q9DBK7).
T1 sequence: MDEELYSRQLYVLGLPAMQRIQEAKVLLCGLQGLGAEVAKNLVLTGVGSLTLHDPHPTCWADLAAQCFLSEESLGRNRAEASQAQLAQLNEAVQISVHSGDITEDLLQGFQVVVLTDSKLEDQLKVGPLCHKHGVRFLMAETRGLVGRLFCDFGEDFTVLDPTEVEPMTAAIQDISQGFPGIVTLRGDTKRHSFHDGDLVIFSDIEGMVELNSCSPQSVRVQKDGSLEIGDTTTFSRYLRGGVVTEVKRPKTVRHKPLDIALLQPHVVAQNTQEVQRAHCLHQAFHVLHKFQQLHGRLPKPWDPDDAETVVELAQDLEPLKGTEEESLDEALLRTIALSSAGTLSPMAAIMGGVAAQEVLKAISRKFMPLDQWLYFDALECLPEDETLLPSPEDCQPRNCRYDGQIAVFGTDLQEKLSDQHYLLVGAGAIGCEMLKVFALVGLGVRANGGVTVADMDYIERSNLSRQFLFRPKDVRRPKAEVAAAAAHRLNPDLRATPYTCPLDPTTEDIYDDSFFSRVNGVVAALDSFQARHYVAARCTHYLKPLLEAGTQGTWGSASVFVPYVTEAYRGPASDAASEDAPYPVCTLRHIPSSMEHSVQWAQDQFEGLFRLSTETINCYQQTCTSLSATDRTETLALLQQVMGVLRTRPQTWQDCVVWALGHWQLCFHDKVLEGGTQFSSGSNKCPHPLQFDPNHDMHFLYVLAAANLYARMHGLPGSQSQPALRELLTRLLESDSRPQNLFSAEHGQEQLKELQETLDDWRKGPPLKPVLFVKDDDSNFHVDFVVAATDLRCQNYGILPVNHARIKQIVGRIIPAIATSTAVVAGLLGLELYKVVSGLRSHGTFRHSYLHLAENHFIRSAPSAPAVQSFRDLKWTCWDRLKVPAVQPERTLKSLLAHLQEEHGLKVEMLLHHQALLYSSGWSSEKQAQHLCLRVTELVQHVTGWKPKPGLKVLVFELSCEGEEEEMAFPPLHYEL
Briefly: disulfide complex formation on non-reducing SDS-PAGE.

By UniProt entry, the sequences of proteins in these tests, tags left out.
UniProt O14933: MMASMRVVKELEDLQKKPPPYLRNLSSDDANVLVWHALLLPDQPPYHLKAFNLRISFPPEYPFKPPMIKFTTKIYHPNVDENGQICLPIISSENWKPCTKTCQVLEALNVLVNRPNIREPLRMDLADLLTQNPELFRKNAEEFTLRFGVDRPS

Results are given in words; binding and its absence hold for the method and conditions named. Some results given as binding are weak or reduced against the parent protein; the word gives no strength.

Regarding “human UBE2L6 (from UniProt O14933 1-153) (enzyme)”, the binding result is reported as “binds weakly”.

Source of the values: article doi:10.1101/2024.11.07.622398.
